For some assays here: Negatives hold for the conditions tested. At least one verdict was read from the data and is not stated in words by the source. Tags and fusion partners may be left off the protein sequences shown. The exact form of at least one protein or probe is not confirmed. For some assays here: The comparison behind a weaker result is the experiment's own reference, which may not be listed here.
Key:
Assay in all cases: EMSA
[1] = target: T1, FIGNL1 (insect, iFIGNL1) (Homo sapiens) (UniProt Q6PIW4); conditions: no fixation; Fixed EMSA: 40 mM tris-acetate pH 7.5, 20 mM NaCl, 2 mM CaCl2, 0.02% Tween, 1 mM DTT, 100 nM DNA, 0-25 nM protein, 37 C 15 min, then 0.2% glutaraldehyde; recombinant protein; residues 1-674; protein details: N-terminal GFP, TEV-removable; label: 5'-FAM; single-stranded DNA
T1 sequence (looked up): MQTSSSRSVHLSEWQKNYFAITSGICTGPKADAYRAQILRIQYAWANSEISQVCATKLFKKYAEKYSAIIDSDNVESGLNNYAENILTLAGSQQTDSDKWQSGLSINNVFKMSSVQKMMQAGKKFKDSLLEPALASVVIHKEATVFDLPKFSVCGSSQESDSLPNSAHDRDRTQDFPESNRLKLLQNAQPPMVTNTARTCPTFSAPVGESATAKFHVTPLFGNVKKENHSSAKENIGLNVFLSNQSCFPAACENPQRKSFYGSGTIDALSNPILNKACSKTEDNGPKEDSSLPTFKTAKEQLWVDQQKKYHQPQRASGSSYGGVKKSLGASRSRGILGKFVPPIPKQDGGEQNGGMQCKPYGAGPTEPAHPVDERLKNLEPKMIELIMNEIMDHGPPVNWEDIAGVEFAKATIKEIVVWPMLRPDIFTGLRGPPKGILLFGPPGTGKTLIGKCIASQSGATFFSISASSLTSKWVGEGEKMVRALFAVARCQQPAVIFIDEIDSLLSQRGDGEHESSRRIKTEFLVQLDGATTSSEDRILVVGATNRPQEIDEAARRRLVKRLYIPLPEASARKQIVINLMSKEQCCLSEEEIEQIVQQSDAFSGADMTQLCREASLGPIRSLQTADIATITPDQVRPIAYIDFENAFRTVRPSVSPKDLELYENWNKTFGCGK

[2] = target: T2, FIRRM (insect) (Homo sapiens) (UniProt Q9NSG2); conditions: no fixation; Fixed EMSA: 40 mM tris-acetate pH 7.5, 20 mM NaCl, 2 mM CaCl2, 0.02% Tween, 1 mM DTT, 100 nM DNA, 0-25 nM protein, 37 C 15 min, then 0.2% glutaraldehyde; recombinant protein; residues 1-853; protein details: N-terminal GFP, TEV-removable; label: 5'-FAM; single-stranded DNA
T2 sequence (looked up): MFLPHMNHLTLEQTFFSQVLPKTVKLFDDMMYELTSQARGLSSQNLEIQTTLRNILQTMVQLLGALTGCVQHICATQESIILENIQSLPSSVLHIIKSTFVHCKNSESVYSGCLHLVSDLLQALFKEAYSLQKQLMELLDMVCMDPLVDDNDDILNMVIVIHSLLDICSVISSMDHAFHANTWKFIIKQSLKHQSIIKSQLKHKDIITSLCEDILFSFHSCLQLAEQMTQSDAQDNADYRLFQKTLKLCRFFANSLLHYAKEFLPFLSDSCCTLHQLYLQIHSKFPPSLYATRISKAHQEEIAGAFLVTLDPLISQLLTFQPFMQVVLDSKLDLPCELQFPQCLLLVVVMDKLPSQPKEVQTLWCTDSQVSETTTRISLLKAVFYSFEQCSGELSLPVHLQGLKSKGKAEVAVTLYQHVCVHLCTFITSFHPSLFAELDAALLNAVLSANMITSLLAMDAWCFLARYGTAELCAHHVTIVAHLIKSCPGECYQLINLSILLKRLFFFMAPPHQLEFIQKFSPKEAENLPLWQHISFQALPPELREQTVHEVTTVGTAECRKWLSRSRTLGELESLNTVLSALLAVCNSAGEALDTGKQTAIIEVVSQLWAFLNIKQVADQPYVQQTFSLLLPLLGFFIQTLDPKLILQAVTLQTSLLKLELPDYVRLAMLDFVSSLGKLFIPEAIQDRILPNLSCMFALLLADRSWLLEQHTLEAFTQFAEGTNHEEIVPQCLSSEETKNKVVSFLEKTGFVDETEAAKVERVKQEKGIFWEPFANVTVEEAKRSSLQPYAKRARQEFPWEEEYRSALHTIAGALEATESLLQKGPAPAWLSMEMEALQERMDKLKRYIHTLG

[3] = target: T3, FIGNL1 (bacterial) (Homo sapiens) (UniProt Q6PIW4); conditions: glutaraldehyde-fixed, 2 mM CaCl2, Fixed EMSA: 40 mM tris-acetate pH 7.5, 20 mM NaCl, 2 mM CaCl2, 0.02% Tween, 1 mM DTT, 100 nM DNA, 0-25 nM protein, 37 C 15 min, then 0.2% glutaraldehyde, recombinant protein, residues 1-674, protein details: C-terminal His, GST removed by PreScission, label: 32P
T3 sequence (looked up): T1 sequence (looked up)

[4] = target: T4, FIRRM (bacterial) (Homo sapiens) (UniProt Q9NSG2); conditions: glutaraldehyde-fixed, 2 mM CaCl2, Fixed EMSA: 40 mM tris-acetate pH 7.5, 20 mM NaCl, 2 mM CaCl2, 0.02% Tween, 1 mM DTT, 100 nM DNA, 0-25 nM protein, 37 C 15 min, then 0.2% glutaraldehyde, recombinant protein, residues 1-853, protein details: C-terminal His, GST removed by PreScission, label: 32P
T4 sequence (looked up): T2 sequence (looked up)

GACGCTGCCGAATTCTACCAGTGCCTTGCTAGGACATCTTTGCCCACCTGCAGGTTCACC [FAM-labeled ssDNA 60-mer]
binding result [1]: binds | binding result [2]: binds

GGGTGAACCTGCAGGTGGGCAAAGATGTCCTGCAATGTAATCGTCAAGCTTTATGCCGT / ACGGCATAAAGCTTGACGATTACATTGCTAGGACATCTTTGCCCACCTGCAGGTTCACCC [dsDNA JYM 925 + 945]
binding result [3]: no binding | binding result [4]: no binding

GGGTGAACCTGCAGGTGGGCAAAGATGTCCTGCAATGTAATCGTCAAGCTTTATGCCGT / ACGCTGCCGAATTCTACCAGTGCCAGCGACGGACATCTTTGCCCACCTGCAGGTTCACCC [splayed arms JYM 925 + 926]
binding result [3]: binds more weakly | binding result [4]: binds more weakly

GGGTGAACCTGCAGGTGGGCAAAGATGTCCTGCAATGTAATCGTCAAGCTTTATGCCGT [ssDNA JYM 925]
binding result ([3]; single-stranded DNA): binds | binding result ([4]; single-stranded DNA): binds

Reference: PMC10411901, “FIRRM cooperates with FIGNL1 to promote RAD51 disassembly during DNA repair” (Science Advances, 2023)
